The assay deals with P388 leukemia ip, CD2F1 mice, survival T/C. The assay is described as follows: NCI In Vivo Anticancer Drug Screen. Data for tumor model P388 Leukemia (intraperitoneal) in CD2F1 (CDF1) mice. The settings on record: T/C endpoint: median survival time, higher T/C = longer survival.
The mark [1] stands for this setting: dose: 100.0 mg/kg/injection, schedule: Q01DX009 (ip), vehicle: Klucel (hydroxypropylcellulose) (HPC).
Where [2] appears, read: dose: 200.0 mg/kg/injection, schedule: Q01DX009 (ip), vehicle: Klucel (hydroxypropylcellulose) (HPC).
The mark [3] stands for this setting: dose: 200.0 mg/kg/injection, schedule: Q01DX005 (ip), vehicle: saline with Tween-80.
Where [4] appears, read: dose: 240.0 mg/kg/injection, schedule: Q01DX005 (ip), vehicle: saline with Tween-80.
Setting [5] is: dose: 100.0 mg/kg/injection, schedule: Q01DX009 (ip), vehicle: saline with Tween-80.
Setting [6] is: dose: 200.0 mg/kg/injection, schedule: Q01DX009 (ip), vehicle: saline with Tween-80.
The mark [7] stands for this setting: dose: 12.5 mg/kg/injection, schedule: Q01DX009 (ip), vehicle: water.
Setting [8] is: dose: 25.0 mg/kg/injection, schedule: Q01DX009 (ip), vehicle: water.
[9] abbreviates: dose: 100.0 mg/kg/injection, schedule: Q01DX009 (ip), vehicle: water.
Setting [10] is: dose: 25.0 mg/kg/injection, schedule: Q01DX009 (ip), vehicle: Klucel (hydroxypropylcellulose) (HPC).

The list does not hold the whole screen: it gathers tests that were run many times, whatever their T/C, doses with no T/C, and many T/C values between a quarter and a half above the control. Further doses and runs are listed elsewhere. T/C is the treated group as % of the vehicle group. Some entries give survivors of the animals treated and no T/C: the source holds a T/C of zero for them, seemingly a mark for toxic or unscored doses. Some doses without a T/C left all or most animals alive at the check, yet need not have been tolerated: the source hardly ever lists a survival T/C far under the control, and the zero likely stands for such cases as well. Survivors were counted at the toxicity check, usually on the fifth day, unless a day is given; later deaths do not show. Schedule codes are those of the source, read here as Q, the interval in days (D) or hours (H), X, the number of doses. Some doses were run more than once; their values stand side by side, smallest first. For survival time, this PubChem deposit counts one and a half times the control or more as active, and values a quarter to a half above the control carry no call in these data; other NCI protocols may use other cut-offs. Brackets with × say how often a value occurs here. Some T/C values carry the count of animals alive at the toxicity check (mostly the fifth day); where none is given, no animal had died by that day.

On to `Nc1nc(=S)c2[nH]c(N=Nc3ccc(S(=O)(=O)Nc4nccs4)cc3)nc2[nH]1`, for which the T/C is 140 % of control (dose: 9.38 mg/kg/injection, schedule: Q01DX001 (ip), vehicle: Klucel (hydroxypropylcellulose) (HPC)); 133 % of control [5 of 6 alive] (dose: 18.75 mg/kg/injection, schedule: Q01DX001 (ip), vehicle: Klucel (hydroxypropylcellulose) (HPC)); 133 % of control [5 of 6 alive] (dose: 37.5 mg/kg/injection, schedule: Q01DX001 (ip), vehicle: Klucel (hydroxypropylcellulose) (HPC)); 140 % of control (dose: 75.0 mg/kg/injection, schedule: Q01DX001 (ip), vehicle: Klucel (hydroxypropylcellulose) (HPC)). Further, the survivor count (dose: 150.0 mg/kg/injection, schedule: Q01DX001 (ip), vehicle: Klucel (hydroxypropylcellulose) (HPC)) was 2 of 6.
As to `CCCCCCCCCCCC[N+](C)([O-])CCCCCC[N+](C)([O-])CCCCCCCCCCCC` (centres undefined), the survivor count runs as follows: under setting [1], 6 of 6; under setting [2], 0 of 6.
As to `NC12CC3CC(CC(C3)C1)C2`, under setting [3], the survivor count is listed as 0 of 5.
Take `N#Cn1c2ccccc2c(=N)c2ccccc21`: under setting [4], the survivor count was 0 of 6.
On to `O=C(NNC(=O)c1ccc(Cl)cc1Cl)c1ccco1`, for which the survivor count is reported as 6 of 6 (dose: 12.5 mg/kg/injection, schedule: Q01DX009 (ip), vehicle: saline); 6 of 6 under setting [5]; 4 of 5 under setting [6].
`Cc1ccc(N/N=c2\c3nc4ccccc4nc2n(-c2ccccc2C)c(=S)n3-c2ccc(C)cc2)cc1`: the survivor count under setting [4] is 2 of 6.
As for `CCOC(=O)C(Cc1ccc(N(CCCl)CCCl)cc1)NC(=O)C(Cc1ccccc1)NC(=O)C(NC(=O)CNC(=O)C1CCCN1)C(C)C` (centres undefined), the T/C (dose: 5.0 mg/kg/injection, schedule: Q04DX003 (ip), vehicle: water) was 130 % of control.
On to `O=[N+]([O-])C(CO)(CO)CC(F)(F)F`, for which the survivor count is, setting by setting: (dose: 3.13 mg/kg/injection, schedule: Q04DX003 (ip), vehicle: saline) 6 of 6; (dose: 12.5 mg/kg/injection, schedule: Q04DX003 (ip), vehicle: saline) 6 of 6.
As to `Oc1cc2c3c(c1)c1cc4c(cc1c[n+]3CC2)OCO4`, the T/C (dose: 3.13 mg/kg/injection, schedule: Q01DX009 (ip), vehicle: other) is 133 % of control; the T/C under setting [7] was 138 % of control; the T/C under setting [8] was 144 % of control [5 of 6 alive]. The survivor count runs as follows: (dose: 40.0 mg/kg/injection, schedule: Q01DX005 (ip), vehicle: acid diluted with saline) 4 of 6; (dose: 50.0 mg/kg/injection, schedule: Q01DX009 (ip), vehicle: other) 2 of 6; (dose: 50.0 mg/kg/injection, schedule: Q01DX009 (ip), vehicle: water) 2 of 6; under setting [9], 0 of 6; (dose: 200.0 mg/kg/injection, schedule: Q01DX009 (ip), vehicle: water) 0 of 6.
`O=[C-]c1ccccc1[C-]=O.[I][Ni+2][I]`: the survivor count is 6 of 6 (dose: 50.0 mg/kg/injection, schedule: Q01DX005 (ip), vehicle: saline with Tween-80); 0 of 6 (dose: 100.0 mg/kg/injection, schedule: Q01DX005 (ip), vehicle: saline with Tween-80); 0 of 6 under setting [3].
Regarding `CC(=O)Nc1cc(Cl)cc2c1-c1ccc(Cl)cc1C2=O`, the survivor count (dose: 200.0 mg/kg/injection, schedule: Q01DX005 (ip), vehicle: Klucel (hydroxypropylcellulose) (HPC)) is given as 1 of 6.
For `NC(CSC(c1ccccc1)(c1ccccc1)c1ccccc1)C(=O)O` (centres undefined), the T/C was 125 % of control (dose: 3.13 mg/kg/injection, schedule: Q01DX009 (ip), vehicle: saline with Tween-80); 141 % of control (dose: 6.25 mg/kg/injection, schedule: Q01DX009 (ip), vehicle: saline with Tween-80, evaluated on day 20); 132 % of control (dose: 6.25 mg/kg/injection, schedule: Q01DX009 (ip), vehicle: saline with Tween-80, evaluated on day 30); 131 % of control (dose: 6.25 mg/kg/injection, schedule: Q01DX009 (ip), vehicle: water); 131, 140, 145 % of control (dose: 8.0 mg/kg/injection, schedule: Q01DX009 (ip), vehicle: water); 145 % of control (dose: 12.0 mg/kg/injection, schedule: Q01DX009 (ip), vehicle: water). Moreover, the T/C was 138 % of control (dose: 12.5 mg/kg/injection, schedule: Q01DX009 (ip), vehicle: Klucel (hydroxypropylcellulose) (HPC)); 137 % of control (dose: 12.5 mg/kg/injection, schedule: Q01DX009 (ip), vehicle: saline with Tween-80, evaluated on day 20); 138, 151, 168 % of control (dose: 12.5 mg/kg/injection, schedule: Q01DX009 (ip), vehicle: saline with Tween-80, evaluated on day 30); 126 and 145 % of control under setting [7]; 142 % of control under setting [10]; 127 and 146 % of control under setting [8]. Further, the T/C by setting is: (dose: 40.0 mg/kg/injection, schedule: Q01DX009 (ip), vehicle: water) 127 % of control; (dose: 50.0 mg/kg/injection, schedule: Q01DX009 (ip), vehicle: Klucel (hydroxypropylcellulose) (HPC)) 141 % of control; under setting [5], 138 % of control (2×); (dose: 160.0 mg/kg/injection, schedule: Q01DX001 (ip), vehicle: water) 127 % of control; (dose: 200.0 mg/kg/injection, schedule: Q01DX009 (oral), vehicle: saline with Tween-80) 135 % of control. Also, the survivor count (dose: 60.0 mg/kg/injection, schedule: Q01DX009 (ip), vehicle: water) is 9 of 10 and 10 of 10; the survivor count (dose: 90.0 mg/kg/injection, schedule: Q01DX009 (ip), vehicle: water) is 0 of 10 and 8 of 10; the survivor count under setting [1] was 6 of 6; the survivor count under setting [5] was 5 of 6 and 6 of 6; the survivor count under setting [9] is on record as 0 of 10, 7 of 10, 6 of 6; the survivor count (dose: 150.0 mg/kg/injection, schedule: Q04DX003 (ip), vehicle: Klucel (hydroxypropylcellulose) (HPC)) is 6 of 6. Further, the survivor count is, setting by setting: under setting [2], 6 of 6; under setting [6], 2 of 6; (dose: 400.0 mg/kg/injection, schedule: Q01DX009 (oral), vehicle: saline with Tween-80) 4 of 6.
For the compound `COC(=O)c1cnc(N)n1C`, the survivor count is, setting by setting: (dose: 25.0 mg/kg/injection, schedule: Q01DX009 (ip), vehicle: distilled water + Tween-80) 5 of 5; (dose: 50.0 mg/kg/injection, schedule: Q01DX009 (ip), vehicle: distilled water + Tween-80) 0 of 5; (dose: 100.0 mg/kg/injection, schedule: Q01DX009 (ip), vehicle: distilled water + Tween-80) 0 of 5; (dose: 200.0 mg/kg/injection, schedule: Q01DX009 (ip), vehicle: distilled water + Tween-80) 0 of 5.
Regarding `COc1cc(OC)c2c[n+](C)c3c4cc(OC)c(OC)cc4ccc3c2c1`, the T/C is, setting by setting: (dose: 5.0 mg/kg/injection, schedule: Q01DX009 (ip), vehicle: saline with Tween-80) 143 % of control; (dose: 10.0 mg/kg/injection, schedule: Q01DX009 (ip), vehicle: saline with Tween-80) 146 % of control.
For `CCCCCCCCC(CCc1ccccc1)CCc1ccccc1`, the survivor count (dose: 100.0 mg/kg/injection, schedule: Q01DX001 (ip), vehicle: saline with Tween-80) is given as 6 of 6.
As to `CC12CC3CC(C)(C1)CC(OCCN)(C3)C2`, the survivor count under setting [4] was 0 of 6.
In the case of `Brc1cc(Br)c2ccccc2c1OCC1CO1` (centres undefined), the survivor count is given as 5 of 6 under setting [10] and 6 of 6 under setting [1].

Values taken from PubChem BioAssay AID330 (DTP/NCI, 2004).
